Results reported in the supplement of paper PMC3334620.
Over roughly 33,000 sequences, “E-score (-0.5 to 0.5)” has its median near -0.015; the highest 2% begin near 0.3. The list shows a part of the results.

These sequences were tested against T1, Abf1 (UniProt P14164) (assay: PBM E-score (8-mer binding enrichment) (E-score (-0.5 to 0.5)); higher = stronger / more preferred TF binding). Conditions: protein concentration: 200 nM; construct: GST-full length.
T1 sequence: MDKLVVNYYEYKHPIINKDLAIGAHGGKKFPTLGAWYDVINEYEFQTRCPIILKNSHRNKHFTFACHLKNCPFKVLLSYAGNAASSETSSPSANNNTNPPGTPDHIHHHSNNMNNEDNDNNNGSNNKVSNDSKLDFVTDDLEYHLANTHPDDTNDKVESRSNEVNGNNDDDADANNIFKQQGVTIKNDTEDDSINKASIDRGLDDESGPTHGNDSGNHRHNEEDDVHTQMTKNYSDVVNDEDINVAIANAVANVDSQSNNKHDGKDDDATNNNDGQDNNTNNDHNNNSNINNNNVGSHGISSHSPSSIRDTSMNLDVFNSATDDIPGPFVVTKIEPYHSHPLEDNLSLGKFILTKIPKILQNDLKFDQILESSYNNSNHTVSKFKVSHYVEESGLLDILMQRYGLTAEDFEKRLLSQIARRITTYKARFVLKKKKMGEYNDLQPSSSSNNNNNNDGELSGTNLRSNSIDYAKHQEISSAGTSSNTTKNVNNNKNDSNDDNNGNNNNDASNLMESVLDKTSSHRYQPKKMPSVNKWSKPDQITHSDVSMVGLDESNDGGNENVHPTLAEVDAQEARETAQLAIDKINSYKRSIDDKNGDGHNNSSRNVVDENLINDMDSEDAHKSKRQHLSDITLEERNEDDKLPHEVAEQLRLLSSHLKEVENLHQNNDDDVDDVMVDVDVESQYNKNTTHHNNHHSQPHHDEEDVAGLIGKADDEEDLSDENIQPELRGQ
Method: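 Universal 'all 10-mer' protein binding microarrays (Agilent AMADID 015681) probed with GST-tagged S. cerevisiae TFs (full-length or DBD) made by in vitro transcription/translation (PURExpress), about 100-200 nM. Bound TF was detected with fluorescent anti-GST. Each ungapped 8-mer (which stands for itself and its reverse complement) is scored by the PBM enrichment score (E-score), a modified Wilcoxon-Mann-Whitney statistic from -0.5 to +0.5, computed with the Universal PBM Analysis Suite. Scale: above 0.35 generally sequence-specific binding.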

Row | Sequence | PBM E-score
1 | CTTCGGCC | -0.0762
2 | ATAGACAT | -0.0673
3 | GCATGACA | 0.207
4 | CTGCGTTA | -0.0882
5 | AACCAAAT | 0.176
6 | GATTGCCA | -0.0369
7 | AGTCTTCA | -0.0415
8 | AGTAGGGG | -0.163
9 | AAAGTTGT | 0.185
10 | AACGAGGC | 0.164
11 | ATCCACAG | 0.139
12 | ATTATGAG | 0.0866
13 | CGAACGGC | 0.233
14 | ATTAGACG | 0.199
15 | ATTGAATA | 0.27
16 | GAGCAACC | -0.0662
17 | GGCTGTGA | -0.0944
18 | CCCCCGGG | -0.275
19 | TCGTGACA | 0.354
20 | CATACCTA | -0.0506
21 | ACGTGCCG | 0.0127
22 | CAATAGAG | -0.114
23 | AGCACGGG | -0.0277
24 | ACCGAAGG | -0.192
25 | CGCGTAGA | -0.0598

Row | Sequence | PBM E-score
26 | AGAAGTAT | 0.132
27 | GAGGTGGA | -0.0921
28 | GCCGAGGA | -0.0936
29 | AGAAGGTC | 0.0488
30 | GGAGCAGA | -0.276
31 | CGACAGAG | 0.189
32 | AAGACTGG | -0.188
33 | CGAGTCCG | 0.0426
34 | TACTAAGA | 0.123
35 | AGATAGGC | -0.205
36 | TGGAGCCA | -0.215
37 | CCTCGTCG | 0.175
38 | CAGGGGTC | -0.0531
39 | ACCACAGC | -0.171
40 | AACTCGGC | 0.123
41 | GGGTCCAC | -0.15
42 | ACTGCAGA | -0.0825
43 | CTGCGGAC | -0.0224
44 | CTAGTTAA | 0.0372
45 | CTGGAAAA | -0.164
46 | CCAGCATA | -0.139
47 | ACACTTCA | -0.0877
48 | AGTCAAAA | 0.0486
49 | CTTCAGGA | -0.131
50 | AGAGCTCG | 0.137

Row | Sequence | PBM E-score
51 | AGGCTTGC | -0.167
52 | GTCTCGGA | -0.0432
53 | CCTGATAG | -0.281
54 | ATCGGTCC | -0.295
55 | TCCTAGGA | -0.244
56 | TGGGATAA | -0.0897
57 | ACTTTACC | 0.0126
58 | TATGCACA | 0.018
59 | GATATTCC | 0.226
60 | GGCGCGTA | -0.136
61 | CCCCCCTA | -0.259
62 | CGCATATA | -0.0268
63 | ATGATTCC | 0.0729
64 | GAGTCGAA | -0.0294
65 | CTTCATGC | -0.154
66 | AGCGTCAC | -0.00719
67 | AGATCAGG | -0.252
68 | GTTCTATA | 0.103
69 | CTTGACCC | -0.0886
70 | ACCTCAAG | -0.13
71 | CATTGAAC | 0.147
72 | TAAAGTAA | 0.0709
73 | AATGACAT | 0.39
74 | CGCTAAAA | 0.11
75 | GTGCGCAC | 0.15

Row | Sequence | PBM E-score
76 | CCCATAGA | -0.302
77 | AAGAGCAA | -0.196
78 | ACATCGGT | -0.00711
79 | AAGTGACG | 0.352
80 | GAAAGTAA | 0.00787
81 | ACCGCCAG | -0.104
82 | CTTCTTTA | 0.12
83 | CACACGAA | 0.341
84 | AAACCCGC | 0.131
85 | ATGGACTA | -0.0421
86 | CGTATGAA | 0.426
87 | ATGCAATC | -0.0506
88 | ATTCCAAT | 0.0599
89 | AAGGCGCG | -0.195
90 | CAGGCCGC | -0.0425
91 | GTAAATTA | -0.0489
92 | ACCTTCAG | -0.109
93 | ACCAGAAG | -0.0311
94 | ACAGACTA | -0.14
95 | TGGTTACA | 0.11
96 | ATACCTTC | -0.00465
97 | CCGGCTCA | -0.0605
98 | ATGCCGAG | -0.0873
99 | ACGCCGAC | -0.171
100 | AAATATCC | 0.0659

Reprinted at random: two entries already listed.
Row | Sequence | PBM E-score
97 | CCGGCTCA | -0.0605
78 | ACATCGGT | -0.00711

Remaining list, next part:

Row | Sequence | PBM E-score
101 | CGGGTGGA | -0.0431
102 | TCGGTTAA | 0.0499
103 | CTGCGAGC | 0.0153
104 | ATGGCTTC | 0.0298
105 | ACTGAGAC | -0.04
106 | ATTACGCC | 0.016
107 | CTCGATTC | -0.104
108 | GCAAGTAA | -0.115
109 | AACCGAAT | 0.0714
110 | ATCTGTCA | 0.212
111 | AAATTGGT | 0.199
112 | ATCTTCAG | 0.0575
113 | GTGTGGCA | -0.082
114 | ATTTCCGG | 0.0492
115 | CTGCCGGA | 0.0521
116 | ACGTGGGC | -0.00691
117 | GCAGGCTA | -0.181
118 | CACCTTGG | -0.144
119 | CTACCTAC | 0.165
120 | CACAGGTA | -0.0274
121 | AGAGGAGA | -0.144
122 | CAACGAAC | 0.14
123 | AGAAATTA | 0.115
124 | AACTACTT | -0.144
125 | CAAGCGGG | -0.176

Taken from above.
CTGCGAGC – PBM E-score: 0.0153
AAATTGGT – PBM E-score: 0.199
CTCGATTC – PBM E-score: -0.104

Further records follow:

Row | Sequence | PBM E-score
126 | GGGGTCAC | -0.0616
127 | GTGGAACA | 0.164
128 | CTGCCGGC | -0.257
129 | TACCCACA | -0.134
130 | GAAACAGA | -0.0148
131 | CAATAACC | 0.0104
132 | ATGCCGGA | -0.0377
133 | GGCCGGTA | -0.0146
134 | TAAGGGTA | -0.196
135 | TCTCCCCA | -0.172
136 | ACCCTTCA | -0.0788
137 | CCTTATAG | -0.00997
138 | CCATATCG | 0.146
139 | ACTAAGCC | 0.0159
140 | TAGATTGA | 0.0666
141 | ACGCTGGC | -0.0435
142 | TTATGCAA | -0.00382
143 | ATTGTACA | 0.0354
144 | AAGTACGC | -0.0592
145 | CTTGAGGC | -0.108
146 | AACAGTAC | 0.02
147 | GTGACAGA | 0.359
148 | ACTGAACG | 0.036
149 | CAAAGGCC | -0.194
150 | ACGGGCCA | -0.0891

Row | Sequence | PBM E-score
151 | CGCCGGCA | 0.0385
152 | CCGACCCA | -0.00172
153 | GACTGTGC | 0.0177
154 | CCCCTGCG | -0.252
155 | GAAACGAC | 0.153
156 | AAAAAAAC | 0.0743
157 | ACCCCGTA | 0.0548
158 | ACTTGAGG | -0.0874
159 | GCTGCACA | -0.173
160 | ACCTAACA | 0.0963
161 | CAAGGACG | 0.0458
162 | ATGTCTGG | -0.0676
163 | CCTGTCGC | -0.133
164 | AGAATTCT | 0.238
165 | AGGGAATG | -0.0277
166 | AGACTTTA | 0.0584
167 | AGCACAGA | -0.03
168 | GAAATCTA | -0.0869
169 | AGACAGTG | -0.0919
170 | GAATAGCA | -0.229
171 | CCTTTTTC | -0.166
172 | GTAGTTTA | 0.0884
